# Results from patent US20160220542A1, “SYNERGISTIC ACTIVITY OF MODULATORS OF THE NO METABOLISM AND OF NADPH OXIDASE IN THE SENSITISATION OF TUMOR CELLS” (Universitaetsklinikum Freiburg, priority 2010, published 2016).
# Some results were stated once for a whole list of compounds, not compound by compound.
# B1: Mn SOD: Mn-containing superoxide dismutase from E. coli (protein, UniProt P00448 2-206, looked up)
# Superoxide dismutase [Mn]: SYTLPSLPYAYDALEPHFDKQTMEIHHTKHHQTYVNNANAALESLPEFANLPVEELITKLDQLPADKKTVLRNNAGGHANHSLFWKGLKKGTTLQGDLKAAIERDFGSVDNFKAEFEKAAASRFGSGWAWLVLKGDKLAVVSTANQDSPLMGEAISGASGFPIMGLDVWEHAYYLKFQNRRPDYIKEFWNVVNWDEAAARFAAKK
# Test system: transformed rat fibroblast line 208Fsrc3
# Assay: autocrine, ROS mediated apoptosis induction in transformed cells
# Format: cell-based
# Details: 208Fsrc3, 20 ng/ml TGF-beta-1, 22 hours
# Method: 12 500 cells of the transformed rat fibroblast line 208Fsrc3 per 100 μl complete medium were sown in 96 hole plates. Following growth 20 ng/ml TGF-beta-1 were added to all preparations. To the preparations the stated concentrations of Cu SOD (from bovine erythroctes) or Mn SOD (from E. coli) were added. Some of the preparations received 50 mM of the HOCl receptor taurine (TAU), 150 μM of the peroxidase inhibitor 4-aminobenzoylhydrazide (ABH) or 10 mM of the hydroxyl radical scavenger mannitol. After 22 hours the percentages of apoptotic cells were determined on the basis of the conventional apoptosis characteristics of nuclear condensation, nuclear fragmentation or membrane blebbing in each case in duplicate preparations.
molecule,measurement,value
B1,SOD concentration range leading to total inhibition of the apoptosis,below 5 U/ml
